Values from PubChem BioAssay AID1224830 (NIAID, 2016)
The whole screen tested about 18,000 reagents; shown is a random part of them. About 2,900 of all reagents (16%) count as active. 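Calls are made per well; low scores hint the gene aids the LPS response, high scores that it dampens it.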 Repeated entries: four replicate wells of each siRNA pool.

- Purpose: 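Host factors that control LPS-induced TNF expression in human macrophages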 (primary screen)
- Cells: human THP-1 monocytic leukaemia cells, TNF dual-luciferase reporter clone, PMA-differentiated to macrophage-like cells
- Knock-down reagent: siRNA pool against human genes, 50 nM
- Timing: LPS for 4 h, given about 3 days after siRNA transfection
- Treatment: bacterial LPS (TLR4 ligand), 10 ng/ml
- Detection: 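Ratio of firefly to renilla light, scaled to the plate median and expressed as a robust z-score per replicate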
- Direction: TNF reporter robust z-score: higher = stronger TNF reporter response to LPS
- Active means: 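a well is active when its z-score exceeds 2.8 or falls below -1.5; control wells carry no call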

gene | TNF reporter robust z-score | outcome
NFXL1 (nuclear transcription factor, X-box binding like 1) | 0.18 | inactive
NFXL1 (nuclear transcription factor, X-box binding like 1) | 0.57 | inactive
NFXL1 (nuclear transcription factor, X-box binding like 1) | -0.66 | inactive
NFXL1 (nuclear transcription factor, X-box binding like 1) | -0.4 | inactive
KIF18B (kinesin family member 18B) | 1.25 | inactive
KIF18B (kinesin family member 18B) | 0.43 | inactive
KIF18B (kinesin family member 18B) | 1.22 | inactive
KIF18B (kinesin family member 18B) | 0.57 | inactive
KIF5A (kinesin family member 5A) | -0.85 | inactive
KIF5A (kinesin family member 5A) | -0.73 | inactive
KIF5A (kinesin family member 5A) | -1.02 | inactive
KIF5A (kinesin family member 5A) | -0.56 | inactive
OPN1LW (opsin 1, long wave sensitive) | 0.96 | inactive
OPN1LW (opsin 1, long wave sensitive) | 1.33 | inactive
OPN1LW (opsin 1, long wave sensitive) | 0.8 | inactive
OPN1LW (opsin 1, long wave sensitive) | 0.77 | inactive
OR2A5 (olfactory receptor family 2 subfamily A member 5) | 0.02 | inactive
OR2A5 (olfactory receptor family 2 subfamily A member 5) | 0.57 | inactive
OR2A5 (olfactory receptor family 2 subfamily A member 5) | 0.76 | inactive
OR2A5 (olfactory receptor family 2 subfamily A member 5) | 0.92 | inactive
MGST2 (microsomal glutathione S-transferase 2) | -0.68 | inactive
MGST2 (microsomal glutathione S-transferase 2) | -0.31 | inactive
MGST2 (microsomal glutathione S-transferase 2) | -0.01 | inactive
MGST2 (microsomal glutathione S-transferase 2) | 4.2 | active
NDRG2 (NDRG family member 2) | 0.82 | inactive
NDRG2 (NDRG family member 2) | 1.56 | inactive
NDRG2 (NDRG family member 2) | 2.96 | active
NDRG2 (NDRG family member 2) | 0.75 | inactive
MIOS (meiosis regulator for oocyte development) | 1.6 | inactive
MIOS (meiosis regulator for oocyte development) | 1.57 | inactive
MIOS (meiosis regulator for oocyte development) | 0.87 | inactive
MIOS (meiosis regulator for oocyte development) | -0.03 | inactive
KLHL23 (kelch like family member 23) | 0.32 | inactive
KLHL23 (kelch like family member 23) | 0.14 | inactive
KLHL23 (kelch like family member 23) | 2.45 | inactive
KLHL23 (kelch like family member 23) | 2.18 | inactive
OR1N2 (olfactory receptor family 1 subfamily N member 2) | -1.02 | inactive
OR1N2 (olfactory receptor family 1 subfamily N member 2) | -0.57 | inactive
OR1N2 (olfactory receptor family 1 subfamily N member 2) | -0.1 | inactive
OR1N2 (olfactory receptor family 1 subfamily N member 2) | -0.2 | inactive

Already shown: an excerpt of the list.
gene | TNF reporter robust z-score | outcome
MIOS (meiosis regulator for oocyte development) | 1.6 | inactive
MIOS (meiosis regulator for oocyte development) | 1.57 | inactive
MIOS (meiosis regulator for oocyte development) | 0.87 | inactive

More results:
gene | TNF reporter robust z-score | outcome
GNPTAB | 1.19 | inactive
GNPTAB | 1.33 | inactive
GNPTAB | 1.6 | inactive
GNPTAB | 1.79 | inactive
CA13 (carbonic anhydrase 13) | 2.75 | inactive
CA13 (carbonic anhydrase 13) | -0.2 | inactive
CA13 (carbonic anhydrase 13) | 0.03 | inactive
CA13 (carbonic anhydrase 13) | -0.17 | inactive
RALGAPA2 (Ral GTPase activating protein catalytic subunit alpha 2) | -0.85 | inactive
RALGAPA2 (Ral GTPase activating protein catalytic subunit alpha 2) | -0.74 | inactive
RALGAPA2 (Ral GTPase activating protein catalytic subunit alpha 2) | 0.24 | inactive
RALGAPA2 (Ral GTPase activating protein catalytic subunit alpha 2) | -0.81 | inactive
CNKSR2 (connector enhancer of kinase suppressor of Ras 2) | -0.22 | inactive
CNKSR2 (connector enhancer of kinase suppressor of Ras 2) | 0.38 | inactive
CNKSR2 (connector enhancer of kinase suppressor of Ras 2) | -0.38 | inactive
CNKSR2 (connector enhancer of kinase suppressor of Ras 2) | 2.03 | inactive
CNFN (cornifelin) | -0.66 | inactive
CNFN (cornifelin) | 0.46 | inactive
CNFN (cornifelin) | -0.69 | inactive
CNFN (cornifelin) | 0.35 | inactive
SAT1 (spermidine/spermine N1-acetyltransferase 1) | -0.76 | inactive
SAT1 (spermidine/spermine N1-acetyltransferase 1) | -0.19 | inactive
SAT1 (spermidine/spermine N1-acetyltransferase 1) | 0.1 | inactive
SAT1 (spermidine/spermine N1-acetyltransferase 1) | 0.5 | inactive
AIDA (axin interactor, dorsalization associated) | 1.39 | inactive
AIDA (axin interactor, dorsalization associated) | 0.74 | inactive
AIDA (axin interactor, dorsalization associated) | -0.03 | inactive
AIDA (axin interactor, dorsalization associated) | 1.45 | inactive
LGALSL (galectin like) | -0.73 | inactive
LGALSL (galectin like) | -0.92 | inactive
LGALSL (galectin like) | -1.71 | active
LGALSL (galectin like) | -0.55 | inactive
ATP1B3 (ATPase Na+/K+ transporting subunit beta 3) | -0.88 | inactive
ATP1B3 (ATPase Na+/K+ transporting subunit beta 3) | -1.35 | inactive
ATP1B3 (ATPase Na+/K+ transporting subunit beta 3) | -1.41 | inactive
ATP1B3 (ATPase Na+/K+ transporting subunit beta 3) | -1.26 | inactive
